Laboratory results taken from PubChem BioAssay AID212 (DTP/NCI, 2004).
The list is a part of this screen's results and no random one: it gathers tests that were run many times, whatever their T/C, doses with no T/C, and many T/C values between a quarter and a half above the control. Further doses and runs are listed elsewhere. T/C gives the treated animals as a percentage of the vehicle group. Schedule codes are those of the source, taken here to give the interval after Q, in days (D) or hours (H), and the number of doses after X. Some entries were tested several times; their values stand side by side, smallest first. Some T/C values carry the count of animals alive at the toxicity check (mostly the fifth day); where none is given, no animal had died by that day. Some doses have a count of surviving animals in place of a T/C: the source holds a T/C of zero for them, seemingly a mark for toxic or unscored doses. Survivors were counted at the toxicity check, usually on the fifth day, unless a day is given; later deaths do not show.

Test system: BDF1 mice, colon carcinoma 38 sc, T/C %
Assay: NCI In Vivo Anticancer Drug Screen. Data for tumor model Colon Carcinoma 38 (subcutaneous) in B6D2F1 (BDF1) mice
Settings: T/C endpoint: median tumor weight (est.), higher T/C = larger tumour; for T/C: evaluated on day 20
Outline: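 Mice with transplanted tumors are treated with compound or vehicle. Survival or tumor size is then measured in both groups. The ratio of treated to control gives the reported figure.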

[1] = dose: 12.5 mg/kg/injection, schedule: Q07DX002 (ip), vehicle: saline with Tween-80
[2] = dose: 50.0 mg/kg/injection, schedule: Q07DX002 (ip), vehicle: saline with Tween-80
[3] = dose: 25.0 mg/kg/injection, schedule: Q07DX002 (ip), vehicle: saline with Tween-80
[4] = dose: 400.0 mg/kg/injection, schedule: Q07DX002 (ip), vehicle: saline
[5] = dose: 12.5 mg/kg/injection, schedule: Q07DX002 (ip), vehicle: Klucel (hydroxypropylcellulose) (HPC)
[6] = dose: 400.0 mg/kg/injection, schedule: Q07DX002 (ip), vehicle: saline with Tween-80
[7] = dose: 50.0 mg/kg/injection, schedule: Q07DX002 (ip), vehicle: saline
[8] = dose: 100.0 mg/kg/injection, schedule: Q07DX002 (ip), vehicle: saline
[9] = dose: 12.5 mg/kg/injection, schedule: Q07DX002 (ip), vehicle: saline
[10] = dose: 25.0 mg/kg/injection, schedule: Q07DX002 (ip), vehicle: saline
[11] = dose: 6.25 mg/kg/injection, schedule: Q07DX002 (ip), vehicle: saline
[12] = dose: 400.0 mg/kg/injection, schedule: Q07DX002 (ip), vehicle: Klucel (hydroxypropylcellulose) (HPC)

C=C1C(=O)C23[C@H](O)C1CC[C@H]2[C@]12COC3(O)[C@@H](O)[C@@H]1C(C)(C)CC[C@@H]2O
T/C (dose: 1.56 mg/kg/injection, schedule: Q07DX002 (ip), vehicle: saline with Tween-80): 132 % of control | T/C (dose: 6.25 mg/kg/injection, schedule: Q07DX002 (ip), vehicle: saline with Tween-80): 126 % of control | T/C [1]: 128 % of control | T/C (dose: 20.0 mg/kg/injection, schedule: Q07DX002 (ip), vehicle: Klucel (hydroxypropylcellulose) (HPC)): 146 % of control | survivor count (dose: 40.0 mg/kg/injection, schedule: Q07DX002 (ip), vehicle: Klucel (hydroxypropylcellulose) (HPC)): 5 of 10 on day 20 | survivor count [2]: 2 of 10 on day 20 and 6 of 10 on day 20 | survivor count (dose: 80.0 mg/kg/injection, schedule: Q07DX002 (ip), vehicle: Klucel (hydroxypropylcellulose) (HPC)): 0 of 10 on day 20 | survivor count (dose: 160.0 mg/kg/injection, schedule: Q07DX002 (ip), vehicle: Klucel (hydroxypropylcellulose) (HPC)): 0 of 10 on day 20

CNC(=O)O/N=C(\CN=[N+]=[N-])C(C)(C)C
T/C (dose: 0.5 mg/kg/injection, schedule: Q07DX002 (ip), vehicle: saline): 136 % of control | survivor count (dose: 2.0 mg/kg/injection, schedule: Q07DX002 (ip), vehicle: saline): 0 of 10 on day 20 | survivor count (dose: 4.0 mg/kg/injection, schedule: Q07DX002 (ip), vehicle: saline): 0 of 10 on day 20 | survivor count (dose: 8.0 mg/kg/injection, schedule: Q07DX002 (ip), vehicle: saline): 0 of 10 on day 20

CCOC(=O)/N=[N+](\[O-])c1ccccc1
survivor count [3]: 2 of 10 on day 20 | survivor count [2]: 0 of 10 on day 20 | survivor count (dose: 100.0 mg/kg/injection, schedule: Q07DX002 (ip), vehicle: saline with Tween-80): 0 of 10 on day 20

Nc1nc(/C=C(/O)c2ccccc2)c2ncn(C3OC(CO)C(O)C3O)c2n1 (centres undefined)
T/C (dose: 50.0 mg/kg/injection, schedule: Q07DX002 (ip), vehicle: distilled water + Tween-80): 146 % of control | survivor count (dose: 200.0 mg/kg/injection, schedule: Q07DX002 (ip), vehicle: distilled water + Tween-80): 5 of 10 on day 20 | survivor count (dose: 400.0 mg/kg/injection, schedule: Q07DX002 (ip), vehicle: distilled water + Tween-80): 0 of 10 on day 20 | survivor count [4]: 3 of 10 on day 20

N=C(N)SCc1c2ccccc2c(CSC(=N)N)c2ccccc12
survivor count [4]: 2 of 10 on day 20

CCCCc1ccc(-n2c(C)c(COC(=O)NC)c(COC(=O)NC)c2C)cc1
T/C [5]: 141 % of control | T/C (dose: 25.0 mg/kg/injection, schedule: Q07DX002 (ip), vehicle: Klucel (hydroxypropylcellulose) (HPC)): 141 % of control

BrC1c2cccc3cccc(c23)C1Br (centres undefined)
T/C [1]: 133 % of control | T/C [6]: 126 % of control

C=C(C)[C@H]1Cc2c(ccc3c2O[C@@H]2COc4cc(OC)c(OC)cc4[C@@H]2C3=O)O1
T/C (dose: 4.0 mg/kg/injection, schedule: Q07DX003 (ip), vehicle: saline with Tween-80): 141 % of control | survivor count (dose: 16.0 mg/kg/injection, schedule: Q07DX003 (ip), vehicle: saline with Tween-80): 5 of 10

C=C(C)[C@H]1CN[C@H](C(=O)O)[C@H]1CC(=O)O
survivor count [7]: 3 of 10 on day 20 | survivor count [8]: 0 of 10 on day 20

Cc1ccc(Cl)c2ccccc12
T/C [3]: 128 % of control | survivor count [6]: 1 of 10 on day 20

CC1(C)OC(=O)N(CO)C1=O
T/C [9]: 130 % of control | T/C [10]: 140 % of control

ClC1=C(Cl)C(Cl)=C(Cl)C1=Cc1ccccc1
T/C (dose: 3.12 mg/kg/injection, schedule: Q07DX002 (ip), vehicle: saline with Tween-80): 127 % of control

CCCCCCCCCCCCSC1=C(Cl)C(=O)C(OC)=C(OC)C1=O
survivor count (dose: 200.0 mg/kg/injection, schedule: Q07DX002 (ip), vehicle: saline with Tween-80): 5 of 10 on day 20 | survivor count [6]: 3 of 10 on day 20 and 6 of 10 on day 20

CC(=O)Oc1ccccc1C(=O)O
T/C (dose: 288.0 mg/kg/injection, schedule: Q07DX002 (ip), vehicle: saline with Tween-80): 132 % of control [7 of 10 alive]

Clc1cc(Cl)c(C[N+]23CN4CN(CN(C4)C2)C3)cc1Cl
survivor count [3]: 4 of 10 on day 20 | T/C [2]: 127 % of control | survivor count [2]: 5 of 10 on day 20 | survivor count [6]: 0 of 10 on day 20

O=[Te]=O
T/C (dose: 3.12 mg/kg/injection, schedule: Q07DX002 (ip), vehicle: saline): 135 % of control | T/C [11]: 141 % of control | T/C [9]: 129 % of control | survivor count [8]: 5 of 10 on day 20

CN(C)CC(Cl)CCl (centres undefined)
T/C [7]: 130 % of control

Cc1ccc(S(=O)(=O)NC(=S)S)cc1
T/C [6]: 129 % of control [7 of 10 alive]

OCCOCCN1CCN(CCCN2c3ccccc3Sc3ccc(C(F)(F)F)cc32)CC1
T/C [11]: 143 % of control | T/C [10]: 135 % of control

NC1CCCCC1N.O=C1C=CC(=C(c2ccc(O)cc2)c2ccccc2S(=O)(=O)[O-])C=C1.O=[N+]([O-])[O-].[Pt+4]
survivor count [10]: 0 of 10 on day 20 and 1 of 10 on day 20

COc1cc2c(cc1O)N=C[C@@H]1CCC(O)N1C2=O (mixture of isomers)
survivor count (dose: 16.0 mg/kg/injection, schedule: Q07DX002 (ip), vehicle: saline): 6 of 10 on day 20 | survivor count (dose: 32.0 mg/kg/injection, schedule: Q07DX002 (ip), vehicle: saline): 0 of 10 on day 20

CSc1nc(=O)[nH]nc1SCc1ccccc1
T/C (dose: 50.0 mg/kg/injection, schedule: Q07DX002 (ip), vehicle: Klucel (hydroxypropylcellulose) (HPC)): 138 and 148 % of control | T/C [12]: 136 % of control

Cc1cn(C2CC(O)C(CO)O2)c(=O)[nH]c1=O (centres undefined)
T/C (dose: 200.0 mg/kg/injection, schedule: Q07DX003 (ip), vehicle: saline): 137 % of control

O=C(O)CC(NC(=O)CP(=O)(O)O)C(=O)O.[NH-]C1CCCCC1[NH-].[Pt+2] (centres undefined)
survivor count (dose: 50.0 mg/kg/injection, schedule: Q07DX002 (ip), vehicle: dextrose): 3 of 10 on day 20

[Cl][Pt+2][Cl].[NH-]C1CCC1.[NH2-]
survivor count (dose: 24.0 mg/kg/injection, schedule: Q07DX002 (ip), vehicle: saline): 1 of 10 on day 20 | survivor count (dose: 48.0 mg/kg/injection, schedule: Q07DX002 (ip), vehicle: saline): 0 of 10 on day 20 and 1 of 10 on day 20

Clc1ccc(C2SC=Cc3ccccc32)cc1 (centres undefined)
survivor count (dose: 800.0 mg/kg/injection, schedule: Q07DX002 (ip), vehicle: Klucel (hydroxypropylcellulose) (HPC)): 6 of 10 on day 20 | survivor count (dose: 1600.0 mg/kg/injection, schedule: Q07DX002 (ip), vehicle: Klucel (hydroxypropylcellulose) (HPC)): 1 of 10 on day 20

CCCCCC[C@H]([C@H](C)O)n1cnc2c(N)ncnc21
T/C (dose: 6.25 mg/kg/injection, schedule: Q07DX002 (ip), vehicle: Klucel (hydroxypropylcellulose) (HPC)): 146 % of control | T/C [5]: 144 % of control

COc1cc(C(=O)c2cc3c(cc2C)OCO3)cc(OC)c1OC
T/C [5]: 132 % of control | survivor count [12]: 1 of 10 on day 20

C1OC1CN1CCN(CC2CO2)CC1 (centres undefined)
T/C [11]: 135 % of control
